Test results published in US9194863B2, “Treatment of pain” (priority 2011, dated 2015).
At least one compound was matched to its structure with a doubt left.

Columns and labels:
[1] = system: DRG neurons; test: Fura-2 intracellular Ca2+ imaging in isolated DRG neurons; format: cell-based, mouse; details: Trpm3−/− mice
Method: (§1) Human embryonic kidney cells, HEK293T, were grown in Dulbecco's modified Eagle's medium (DMEM) containing 10% (v/v) human serum, 2 mM L-glutamine, 2 units/ml penicillin, and 2 mg/ml streptomycin at 37° C. in a humidity-controlled incubator with 10% CO2. HEK293T cells were transiently transfected with murine TRPM3α2 (accession number AJ 544535) in the bicistronic pCAGGS/IRES-GFP vector, using Mirus TransIT-293 (Mirus corporation; Madison USA). Transfected cells were visualized by green fluorescence protein (GFP) expression whereas GFP negative cells from the same batch were used as controls. TG and DRG neurons from adult (postnatal weeks 8-12) male mice were isolated as described previously (Karashima et al., 2007). HEK293T cells stably transfected with TRPM3α2 were developed using the Flp-In System (Invitrogen).
(§2) Fura-2-based ratiometric intracellular Ca^2+ measurements were performed as described previously (Vriens et al., 2007). The following procedure was used to distinguish stimulus-induced responses from background variations in fluorescence. First, we calculated the time derivative of the fluorescence ratio (dRatio/dt), and the standard deviation (SD) of dRatio/dt in the absence of any stimulus. […] For every condition, a minimum of 100 cells derived from at least three separated isolations and in at least twelve independent measurements were analyzed.

[2] = system: TG neurons; test: Fura-2 intracellular Ca2+ imaging in isolated TG neurons; format: cell-based, mouse; details: Trpm3−/− mice
Method: as §1, §2

For `COC(=O)C1=C(C)NC(C)=C(C(=O)OC)C1c1ccccc1[N+](=O)[O-]` [nifedipine], the “fraction of sensitive DRG neurons in Trpm3−/− preparations versus Trpm3+/+” value [1] was “not significantly altered” and the “fraction of sensitive TG neurons in Trpm3−/− preparations versus Trpm3+/+” value [2] was “not significantly altered”.
